Results as given in the supplement of paper PMC6411743.
± gives the standard deviation of the averaged measurements. The list shows a part of the results.

Amino acid sequences for entries named in this document (tags omitted). A change or cut given only in a name is not applied to a line headed by its entry.
UniProt Q9NNW7, whole entry: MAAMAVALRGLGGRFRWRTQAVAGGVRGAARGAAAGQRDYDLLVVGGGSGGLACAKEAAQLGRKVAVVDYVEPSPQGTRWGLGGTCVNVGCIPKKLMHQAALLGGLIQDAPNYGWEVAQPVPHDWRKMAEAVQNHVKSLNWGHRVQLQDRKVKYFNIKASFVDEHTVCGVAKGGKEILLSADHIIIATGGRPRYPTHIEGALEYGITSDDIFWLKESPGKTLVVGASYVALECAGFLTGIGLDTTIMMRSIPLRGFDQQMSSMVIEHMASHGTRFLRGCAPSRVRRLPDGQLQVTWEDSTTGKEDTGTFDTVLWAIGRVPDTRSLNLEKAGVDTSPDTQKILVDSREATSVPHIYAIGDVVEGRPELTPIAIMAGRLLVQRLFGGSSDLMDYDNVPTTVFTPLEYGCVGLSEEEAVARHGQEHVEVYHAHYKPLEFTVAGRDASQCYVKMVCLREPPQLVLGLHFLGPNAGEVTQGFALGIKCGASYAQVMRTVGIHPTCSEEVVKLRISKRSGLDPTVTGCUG
UniProt Q9HD45: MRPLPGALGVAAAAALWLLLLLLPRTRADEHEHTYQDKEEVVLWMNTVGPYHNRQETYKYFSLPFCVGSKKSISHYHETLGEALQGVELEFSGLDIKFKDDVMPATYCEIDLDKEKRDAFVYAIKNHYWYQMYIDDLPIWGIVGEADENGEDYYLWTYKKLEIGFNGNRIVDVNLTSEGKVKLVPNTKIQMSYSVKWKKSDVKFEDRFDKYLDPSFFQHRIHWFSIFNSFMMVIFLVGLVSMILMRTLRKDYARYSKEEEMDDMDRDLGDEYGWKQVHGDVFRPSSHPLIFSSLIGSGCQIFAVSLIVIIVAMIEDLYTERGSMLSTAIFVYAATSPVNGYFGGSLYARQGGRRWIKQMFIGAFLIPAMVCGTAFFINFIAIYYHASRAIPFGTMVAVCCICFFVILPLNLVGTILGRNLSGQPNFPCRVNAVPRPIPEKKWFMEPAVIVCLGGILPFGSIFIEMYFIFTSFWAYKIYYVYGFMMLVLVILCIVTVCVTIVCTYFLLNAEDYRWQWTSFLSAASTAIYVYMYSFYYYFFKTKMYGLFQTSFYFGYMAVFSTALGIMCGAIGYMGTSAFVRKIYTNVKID
UniProt Q9NRB3: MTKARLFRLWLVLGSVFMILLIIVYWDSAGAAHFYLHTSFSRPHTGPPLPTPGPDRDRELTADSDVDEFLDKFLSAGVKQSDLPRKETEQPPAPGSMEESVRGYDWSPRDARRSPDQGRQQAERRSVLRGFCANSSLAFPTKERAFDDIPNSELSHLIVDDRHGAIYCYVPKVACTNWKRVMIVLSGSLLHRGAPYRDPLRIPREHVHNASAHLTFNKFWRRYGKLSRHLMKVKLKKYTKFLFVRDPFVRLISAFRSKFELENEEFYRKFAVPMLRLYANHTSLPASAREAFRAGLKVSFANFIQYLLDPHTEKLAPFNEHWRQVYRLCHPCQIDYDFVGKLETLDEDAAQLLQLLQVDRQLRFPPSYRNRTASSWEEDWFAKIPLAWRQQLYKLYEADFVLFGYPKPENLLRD
UniProt Q9GZZ9, whole entry: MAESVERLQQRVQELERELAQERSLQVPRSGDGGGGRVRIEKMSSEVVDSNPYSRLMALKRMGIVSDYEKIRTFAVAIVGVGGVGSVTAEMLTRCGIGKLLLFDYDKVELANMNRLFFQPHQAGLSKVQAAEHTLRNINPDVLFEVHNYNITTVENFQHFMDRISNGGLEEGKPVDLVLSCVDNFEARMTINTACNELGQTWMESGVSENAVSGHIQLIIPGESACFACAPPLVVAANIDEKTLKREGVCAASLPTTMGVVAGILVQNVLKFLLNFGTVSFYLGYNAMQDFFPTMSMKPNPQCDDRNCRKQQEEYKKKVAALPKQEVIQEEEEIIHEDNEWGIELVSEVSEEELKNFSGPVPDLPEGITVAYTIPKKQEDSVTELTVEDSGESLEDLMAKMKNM
UniProt Q9H0U4: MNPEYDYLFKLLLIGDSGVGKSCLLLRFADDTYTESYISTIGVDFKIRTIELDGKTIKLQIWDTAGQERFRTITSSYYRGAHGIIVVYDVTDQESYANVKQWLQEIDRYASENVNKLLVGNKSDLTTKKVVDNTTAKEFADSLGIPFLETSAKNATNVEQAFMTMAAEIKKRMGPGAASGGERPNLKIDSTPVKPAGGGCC
UniProt Q9NQH7: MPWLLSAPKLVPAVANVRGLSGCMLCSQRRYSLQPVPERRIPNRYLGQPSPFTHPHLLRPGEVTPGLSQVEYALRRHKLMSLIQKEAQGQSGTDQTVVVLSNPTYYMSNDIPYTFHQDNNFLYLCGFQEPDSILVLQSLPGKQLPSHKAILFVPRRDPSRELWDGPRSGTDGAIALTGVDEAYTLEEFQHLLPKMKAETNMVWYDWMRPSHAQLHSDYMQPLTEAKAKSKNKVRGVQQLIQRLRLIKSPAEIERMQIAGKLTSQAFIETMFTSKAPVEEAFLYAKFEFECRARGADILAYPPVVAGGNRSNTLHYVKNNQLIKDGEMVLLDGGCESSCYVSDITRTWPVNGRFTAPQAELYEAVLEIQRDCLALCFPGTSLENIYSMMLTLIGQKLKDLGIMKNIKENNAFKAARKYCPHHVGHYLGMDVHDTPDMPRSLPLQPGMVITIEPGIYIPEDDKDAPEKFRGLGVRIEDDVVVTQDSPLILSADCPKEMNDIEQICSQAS
UniProt Q9NQW6: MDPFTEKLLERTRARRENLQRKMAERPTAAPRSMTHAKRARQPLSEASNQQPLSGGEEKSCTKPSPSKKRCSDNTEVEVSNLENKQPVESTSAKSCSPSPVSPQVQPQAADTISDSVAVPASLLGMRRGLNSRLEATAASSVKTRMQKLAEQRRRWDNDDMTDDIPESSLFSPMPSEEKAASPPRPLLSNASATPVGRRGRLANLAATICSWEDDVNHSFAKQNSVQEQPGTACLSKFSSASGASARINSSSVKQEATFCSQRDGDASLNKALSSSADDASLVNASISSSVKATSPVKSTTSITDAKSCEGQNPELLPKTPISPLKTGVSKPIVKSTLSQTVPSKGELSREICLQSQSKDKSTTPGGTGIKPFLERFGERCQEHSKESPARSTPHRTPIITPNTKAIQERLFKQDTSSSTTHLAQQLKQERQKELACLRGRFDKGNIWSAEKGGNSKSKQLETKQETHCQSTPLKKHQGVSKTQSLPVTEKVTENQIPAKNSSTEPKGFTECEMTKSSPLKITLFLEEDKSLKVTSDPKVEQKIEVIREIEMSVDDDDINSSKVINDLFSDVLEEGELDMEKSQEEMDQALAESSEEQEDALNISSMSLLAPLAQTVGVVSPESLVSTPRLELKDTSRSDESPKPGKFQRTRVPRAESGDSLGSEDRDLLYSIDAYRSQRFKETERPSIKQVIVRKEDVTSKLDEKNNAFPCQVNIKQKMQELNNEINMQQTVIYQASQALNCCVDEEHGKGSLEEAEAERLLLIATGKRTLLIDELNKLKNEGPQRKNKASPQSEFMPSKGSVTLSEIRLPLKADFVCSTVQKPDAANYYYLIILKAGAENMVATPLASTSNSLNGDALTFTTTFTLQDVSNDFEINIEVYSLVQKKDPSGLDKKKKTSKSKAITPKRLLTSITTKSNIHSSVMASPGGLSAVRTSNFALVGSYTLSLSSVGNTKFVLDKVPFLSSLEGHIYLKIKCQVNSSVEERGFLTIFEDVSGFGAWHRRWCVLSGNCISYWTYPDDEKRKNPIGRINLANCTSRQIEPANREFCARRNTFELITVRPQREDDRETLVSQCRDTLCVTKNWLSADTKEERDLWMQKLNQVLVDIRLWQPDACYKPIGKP
UniProt Q9H3K2: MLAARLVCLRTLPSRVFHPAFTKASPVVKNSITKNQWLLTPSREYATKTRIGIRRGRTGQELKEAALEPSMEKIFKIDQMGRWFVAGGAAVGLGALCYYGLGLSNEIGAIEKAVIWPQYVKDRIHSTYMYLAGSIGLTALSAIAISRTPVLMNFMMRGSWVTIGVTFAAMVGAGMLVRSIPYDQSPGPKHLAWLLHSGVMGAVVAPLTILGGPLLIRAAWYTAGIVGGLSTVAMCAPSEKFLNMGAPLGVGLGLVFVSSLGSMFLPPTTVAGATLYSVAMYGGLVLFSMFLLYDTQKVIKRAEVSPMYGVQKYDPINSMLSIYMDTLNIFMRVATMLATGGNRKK
UniProt Q9H2U2: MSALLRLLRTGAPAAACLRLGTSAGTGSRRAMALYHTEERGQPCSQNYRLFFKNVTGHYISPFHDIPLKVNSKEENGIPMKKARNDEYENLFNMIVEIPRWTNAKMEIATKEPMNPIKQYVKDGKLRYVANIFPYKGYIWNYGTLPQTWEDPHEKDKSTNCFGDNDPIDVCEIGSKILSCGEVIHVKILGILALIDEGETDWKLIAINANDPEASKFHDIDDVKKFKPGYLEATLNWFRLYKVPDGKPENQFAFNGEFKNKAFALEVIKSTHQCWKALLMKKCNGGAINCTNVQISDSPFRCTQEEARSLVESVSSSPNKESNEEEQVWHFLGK
UniProt Q9H0F6: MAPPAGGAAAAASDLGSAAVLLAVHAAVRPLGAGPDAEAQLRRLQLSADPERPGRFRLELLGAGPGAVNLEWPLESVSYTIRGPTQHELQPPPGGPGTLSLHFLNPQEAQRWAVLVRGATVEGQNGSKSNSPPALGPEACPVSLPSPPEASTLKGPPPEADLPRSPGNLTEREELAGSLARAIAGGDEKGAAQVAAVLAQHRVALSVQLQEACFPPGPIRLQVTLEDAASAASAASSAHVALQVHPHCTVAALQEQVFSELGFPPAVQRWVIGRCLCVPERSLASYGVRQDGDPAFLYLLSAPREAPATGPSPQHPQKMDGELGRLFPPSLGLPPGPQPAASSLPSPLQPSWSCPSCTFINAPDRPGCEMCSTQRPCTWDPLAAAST
UniProt Q9NRX1: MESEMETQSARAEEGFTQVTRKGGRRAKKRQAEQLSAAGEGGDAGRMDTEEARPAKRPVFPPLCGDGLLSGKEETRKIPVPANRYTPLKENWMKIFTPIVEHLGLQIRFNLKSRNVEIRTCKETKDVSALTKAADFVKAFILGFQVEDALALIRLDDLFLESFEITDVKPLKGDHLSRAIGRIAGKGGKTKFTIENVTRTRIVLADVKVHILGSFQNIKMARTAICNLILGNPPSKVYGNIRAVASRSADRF
UniProt Q9H7E9: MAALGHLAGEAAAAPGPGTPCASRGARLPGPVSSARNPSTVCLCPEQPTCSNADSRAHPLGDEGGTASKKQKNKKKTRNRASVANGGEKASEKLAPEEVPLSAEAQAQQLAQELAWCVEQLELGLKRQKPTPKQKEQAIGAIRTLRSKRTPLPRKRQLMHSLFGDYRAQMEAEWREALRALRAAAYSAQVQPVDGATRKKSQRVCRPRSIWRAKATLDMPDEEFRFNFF
UniProt Q9NTX5: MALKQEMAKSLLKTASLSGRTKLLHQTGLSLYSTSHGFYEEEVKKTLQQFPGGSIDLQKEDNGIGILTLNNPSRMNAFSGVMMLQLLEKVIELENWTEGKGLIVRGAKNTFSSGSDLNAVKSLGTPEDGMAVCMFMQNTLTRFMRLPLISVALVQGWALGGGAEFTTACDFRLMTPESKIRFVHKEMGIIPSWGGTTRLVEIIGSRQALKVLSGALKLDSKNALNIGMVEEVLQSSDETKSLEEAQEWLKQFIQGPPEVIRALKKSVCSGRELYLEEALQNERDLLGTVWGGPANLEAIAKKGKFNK
UniProt Q9H4A6: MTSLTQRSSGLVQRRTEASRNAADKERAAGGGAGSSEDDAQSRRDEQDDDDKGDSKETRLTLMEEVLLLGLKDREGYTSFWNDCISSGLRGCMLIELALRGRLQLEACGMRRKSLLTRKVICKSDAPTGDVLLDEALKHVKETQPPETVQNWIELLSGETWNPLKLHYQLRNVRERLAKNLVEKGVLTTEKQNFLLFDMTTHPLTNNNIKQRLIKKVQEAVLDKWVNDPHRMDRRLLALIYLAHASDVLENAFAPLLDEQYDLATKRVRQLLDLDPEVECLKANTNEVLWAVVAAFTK
UniProt Q9GZT9: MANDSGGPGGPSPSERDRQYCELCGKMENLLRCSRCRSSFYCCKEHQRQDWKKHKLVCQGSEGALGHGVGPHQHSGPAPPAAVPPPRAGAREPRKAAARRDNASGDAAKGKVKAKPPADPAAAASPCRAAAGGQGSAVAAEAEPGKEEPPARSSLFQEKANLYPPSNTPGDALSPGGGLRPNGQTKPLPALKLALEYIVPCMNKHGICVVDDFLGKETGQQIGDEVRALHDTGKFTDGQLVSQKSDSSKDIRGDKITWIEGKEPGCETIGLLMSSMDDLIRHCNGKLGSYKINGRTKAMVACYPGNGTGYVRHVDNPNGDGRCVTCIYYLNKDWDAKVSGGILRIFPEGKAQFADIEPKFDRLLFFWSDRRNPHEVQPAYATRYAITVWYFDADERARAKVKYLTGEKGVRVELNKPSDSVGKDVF
UniProt Q9NP50: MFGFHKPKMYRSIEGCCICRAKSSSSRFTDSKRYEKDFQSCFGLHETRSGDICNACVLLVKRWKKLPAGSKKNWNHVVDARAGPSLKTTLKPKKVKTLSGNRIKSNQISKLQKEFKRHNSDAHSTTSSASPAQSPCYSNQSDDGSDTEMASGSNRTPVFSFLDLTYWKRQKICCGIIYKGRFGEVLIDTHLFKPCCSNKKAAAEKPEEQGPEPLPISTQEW

Compound: Nc1nc2c(ncn2[C@@H]2O[C@H](COP(=O)(O)OP(=O)(O)OP(=O)(O)O)[C@@H](O)[C@H]2O)c(=O)[nH]1 [guanosine triphosphate]
Experiment: NP40-soluble protein abundance relative to vehicle (solubility fold change) (ratio); higher = more soluble protein in presence of GTP
How it was run: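 Data come from three independent experiments in which Dounce-homogenised Jurkat crude lysate was treated at eight concentrations from 0.1 to 10 mM. Treatment ran 10 min at room temperature and then 3 min at 37 °C, after which 0.8% NP40 and benzonase were added for 60 min at 4 °C before ultracentrifugation. The supernatant underwent TMT labelling and LC-MS/MS, and vsn-normalised intensities were expressed as fold change against the detergent-processed vehicle in each replicate.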

| Target | NP40-soluble protein abundance (concentration: 0.1mM) | NP40-soluble protein abundance (concentration: 0.5mM) | NP40-soluble protein abundance (concentration: 1mM) | NP40-soluble protein abundance (concentration: 2mM) | NP40-soluble protein abundance (concentration: 4mM) | NP40-soluble protein abundance (concentration: 6mM) | NP40-soluble protein abundance (concentration: 8mM) | NP40-soluble protein abundance (concentration: 10mM) |
| --- | --- | --- | --- | --- | --- | --- | --- | --- |
| UniProt Q9NNW7 and related entries | 0.979 ± 0.087 | 0.989 ± 0.051 | 1 ± 0.06 | 1.01 ± 0.063 | 0.946 ± 0.079 | 0.94 ± 0.074 | 0.945 ± 0.052 | 1.01 ± 0.057 |
| UniProt Q9HD45 and related entries | 1.01 ± 0.05 | 1.05 ± 0.092 | 0.924 ± 0.022 | 0.961 ± 0.051 | 0.941 ± 0.013 | 0.915 ± 0.03 | 0.906 ± 0.053 | 0.903 ± 0.069 |
| CHST12 (UniProt Q9NRB3) | 0.828 ± 0.048 | 0.941 ± 0.19 | 0.827 ± 0.12 | 0.88 ± 0.13 | 0.819 ± 0.014 | 0.891 ± 0.066 | 0.975 ± 0.022 | 0.813 ± 0.075 |
| UniProt Q9H0P0 and related entries | 0.955 ± 0.017 | 0.945 ± 0.013 | 0.925 ± 0.037 | 0.907 ± 0.067 | 0.892 ± 0.05 | 0.862 ± 0.043 | 0.864 ± 0.03 | 0.854 ± 0.048 |
| CHMP1A (UniProt Q9HD42) | 0.875 ± 0.065 | 0.774 ± 0.071 | 1.03 ± 0.08 | 0.993 ± 0.037 | 0.999 ± 0.033 | 0.961 ± 0.06 | 0.942 ± 0.13 | 1.01 ± 0.03 |
| ULBP2 (UniProt Q9BZM5) | 0.893 ± 0.085 | 0.86 ± 0.1 | 0.918 ± 0.073 | 0.884 ± 0.1 | 0.907 ± 0.098 | 0.89 ± 0.043 | 0.916 ± 0.1 | 0.925 ± 0.088 |
| UBA5 (UniProt Q9GZZ9) | 1 ± 0.018 | 0.967 ± 0.042 | 0.892 ± 0.039 | 0.903 ± 0.037 | 0.88 ± 0.038 | 0.857 ± 0.038 | 0.848 ± 0.068 | 0.837 ± 0.072 |
| YTHDC2 (UniProt Q9H6S0) | 1.24 ± 0.19 | 1.28 ± 0.27 | 1.28 ± 0.26 | 1.28 ± 0.19 | 1.27 ± 0.19 | 1.28 ± 0.19 | 1.34 ± 0.23 | 1.26 ± 0.069 |
| RAB1B (UniProt Q9H0U4) | 0.936 ± 0.021 | 0.96 ± 0.029 | 0.915 ± 0.034 | 0.859 ± 0.047 | 0.82 ± 0.053 | 0.857 ± 0.06 | 0.842 ± 0.057 | 0.807 ± 0.072 |
| FN3KRP (UniProt Q9HA64) | 0.9717 ± 0.0097 | 0.991 ± 0.014 | 0.927 ± 0.032 | 0.913 ± 0.061 | 0.905 ± 0.042 | 0.884 ± 0.031 | 0.89 ± 0.047 | 0.868 ± 0.051 |
| UniProt Q9NQH7 and related entries | 1.07 ± 0.032 | 1.07 ± 0.11 | 0.946 ± 0.033 | 0.946 ± 0.059 | 0.969 ± 0.035 | 0.942 ± 0.085 | 0.886 ± 0.071 | 0.931 ± 0.071 |
| ANLN (UniProt Q9NQW6) | 0.943 ± 0.04 | 0.967 ± 0.044 | 0.949 ± 0.072 | 0.93 ± 0.084 | 0.925 ± 0.061 | 0.957 ± 0.076 | 0.971 ± 0.033 | 0.993 ± 0.053 |
| GHITM (UniProt Q9H3K2) | 1.03 ± 0.047 | 0.96 ± 0.057 | 0.915 ± 0.075 | 0.914 ± 0.084 | 0.929 ± 0.06 | 0.909 ± 0.033 | 0.876 ± 0.071 | 0.865 ± 0.093 |
| ANKZF1 (UniProt Q9H8Y5) | 1.03 ± 0.069 | 1.04 ± 0.072 | 1.01 ± 0.032 | 0.987 ± 0.12 | 0.979 ± 0.062 | 0.988 ± 0.092 | 1.05 ± 0.063 | 1.03 ± 0.077 |
| UniProt Q9H1B7 | 0.923 ± 0.06 | 0.918 ± 0.06 | 0.951 ± 0.037 | 0.915 ± 0.063 | 0.912 ± 0.03 | 0.907 ± 0.045 | 0.941 ± 0.045 | 0.929 ± 0.04 |
| UniProt Q9GZN8 and related entries | 1.09 ± 0.02 | 0.998 ± 0.021 | 1.064 ± 0.01 | 0.9909 ± 0.0088 | 1.09 ± 0.044 | 0.9681 ± 0.0027 | 1 ± 0.077 | 0.936 ± 0.072 |
| UniProt Q9H2U2 and related entries | 0.947 ± 0.039 | 0.9839 ± 0.0093 | 0.909 ± 0.043 | 0.895 ± 0.028 | 0.862 ± 0.054 | 0.877 ± 0.032 | 0.857 ± 0.059 | 0.853 ± 0.058 |
| UniProt Q9H0F6 and related entries | 0.983 ± 0.072 | 0.948 ± 0.24 | 1.09 ± 0.2 | 1.07 ± 0.12 | 0.983 ± 0.21 | 0.976 ± 0.26 | 1.04 ± 0.19 | 1.07 ± 0.1 |
| UniProt Q9HD20 and related entries | 1.07 ± 0.015 | 1.03 ± 0.049 | 0.9141 ± 0.0074 | 0.962 ± 0.034 | 0.941 ± 0.05 | 0.917 ± 0.016 | 0.892 ± 0.053 | 0.874 ± 0.079 |
| PNO1 (UniProt Q9NRX1) | 1.04 ± 0.082 | 1.09 ± 0.17 | 1.14 ± 0.19 | 1.15 ± 0.28 | 1.09 ± 0.27 | 1.09 ± 0.3 | 1.15 ± 0.28 | 1.15 ± 0.32 |
| UniProt Q9NS73 and related entries | 1.03 ± 0.076 | 1.03 ± 0.045 | 1.16 ± 0.086 | 1.2 ± 0.16 | 1.31 ± 0.22 | 1.19 ± 0.14 | 1.3 ± 0.19 | 1.21 ± 0.13 |
| SDF2L1 (UniProt Q9HCN8) | 0.97 ± 0.078 | 0.987 ± 0.081 | 0.973 ± 0.052 | 0.966 ± 0.084 | 0.986 ± 0.091 | 0.98 ± 0.096 | 0.98 ± 0.12 | 0.956 ± 0.094 |
| UniProt Q9H7E9 and related entries | 0.991 ± 0.12 | 1.02 ± 0.13 | 1 ± 0.043 | 1.07 ± 0.06 | 0.975 ± 0.036 | 1.03 ± 0.07 | 1.17 ± 0.23 | 1.17 ± 0.18 |
| FAM114A2 (UniProt Q9NRY5) | 0.951 ± 0.06 | 0.918 ± 0.067 | 0.958 ± 0.056 | 0.914 ± 0.082 | 0.876 ± 0.061 | 0.886 ± 0.12 | 0.894 ± 0.072 | 0.904 ± 0.059 |
| UniProt Q9NTX5 and related entries | 1.03 ± 0.025 | 1 ± 0.032 | 0.9594 ± 0.0043 | 0.9362 ± 0.0029 | 0.922 ± 0.032 | 0.918 ± 0.022 | 0.916 ± 0.01 | 0.903 ± 0.02 |
| UniProt Q9H3N1 | 0.957 ± 0.055 | 0.947 ± 0.043 | 0.935 ± 0.04 | 0.871 ± 0.062 | 0.858 ± 0.071 | 0.878 ± 0.091 | 0.885 ± 0.053 | 0.859 ± 0.065 |
| UniProt Q9HAF1 and related entries | 1.19 ± 0.27 | 1.12 ± 0.19 | 1.29 ± 0.18 | 1.27 ± 0.11 | 1.24 ± 0.085 | 1.18 ± 0.057 | 1.33 ± 0.16 | 1.38 ± 0.12 |
| GOLPH3 (UniProt Q9H4A6) | 0.992 ± 0.017 | 0.959 ± 0.038 | 0.933 ± 0.075 | 0.918 ± 0.061 | 0.906 ± 0.039 | 0.88 ± 0.031 | 0.893 ± 0.066 | 0.876 ± 0.067 |
| EGLN1 (UniProt Q9GZT9) | 0.993 ± 0.055 | 0.958 ± 0.062 | 0.959 ± 0.054 | 0.912 ± 0.11 | 0.934 ± 0.077 | 0.933 ± 0.082 | 0.972 ± 0.029 | 0.988 ± 0.1 |
| UniProt Q9NP50 and related entries | 1.09 ± 0.069 | 1.13 ± 0.028 | 1.14 ± 0.061 | 1.1 ± 0.04 | 1.09 ± 0.12 | 1.08 ± 0.075 | 1.12 ± 0.13 | 1.12 ± 0.11 |

A stretch from the list above, as a working copy:

| Target | NP40-soluble protein abundance (concentration: 0.1mM) | NP40-soluble protein abundance (concentration: 0.5mM) | NP40-soluble protein abundance (concentration: 1mM) | NP40-soluble protein abundance (concentration: 2mM) | NP40-soluble protein abundance (concentration: 4mM) | NP40-soluble protein abundance (concentration: 6mM) | NP40-soluble protein abundance (concentration: 8mM) | NP40-soluble protein abundance (concentration: 10mM) |
| --- | --- | --- | --- | --- | --- | --- | --- | --- |
| UniProt Q9NQH7 and related entries | 1.07 ± 0.032 | 1.07 ± 0.11 | 0.946 ± 0.033 | 0.946 ± 0.059 | 0.969 ± 0.035 | 0.942 ± 0.085 | 0.886 ± 0.071 | 0.931 ± 0.071 |
| ANLN (UniProt Q9NQW6) | 0.943 ± 0.04 | 0.967 ± 0.044 | 0.949 ± 0.072 | 0.93 ± 0.084 | 0.925 ± 0.061 | 0.957 ± 0.076 | 0.971 ± 0.033 | 0.993 ± 0.053 |
